According to JP2018108089A:
Substitutions are numbered along the chain they refer to. No constants are given. Whether binding was seen depends on the method and setting. Some results given as binding are weak or reduced against the parent protein; the word gives no strength.

Chains of the proteins cited; added tags and fusions are not shown. Residues count along the entry.
UniProt P10646, residues 29-304: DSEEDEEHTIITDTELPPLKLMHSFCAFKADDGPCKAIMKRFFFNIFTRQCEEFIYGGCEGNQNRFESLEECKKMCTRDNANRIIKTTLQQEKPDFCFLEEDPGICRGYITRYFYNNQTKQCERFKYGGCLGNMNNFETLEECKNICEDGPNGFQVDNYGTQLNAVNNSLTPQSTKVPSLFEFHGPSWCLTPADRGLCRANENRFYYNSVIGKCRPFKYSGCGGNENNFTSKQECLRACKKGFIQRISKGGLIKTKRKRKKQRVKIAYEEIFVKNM

B1: TP-2G2 (Fab, V domains shown)
VH: QVQLVESGGGLVQPGGSLRLSCAASGFTFSSYAMNWVRQAPGKGLEWVSAILSDGSSTSYADSVKGRFTISRDNSKNTLYLQMNSLRAEDTAVYYCARYPDWGWYTDVWGQGTLVTVSS
VL: DIELTQPPSVSVAPGQTARISCSGDNIRKFYVHWYQQKPGQAPVLVIYGTNKRPSGIPERFSGSNSGNTATLTISGTQAEDEADYYCQSYDSKFNTVFGGGTKLTVLG
B2: TP-2G6 (Fab, V domains shown)
VH: QVQLQQSGPGLVKPSQTLSLTCAISGDSVSSSSAAWSWIRQSPGRGLEWLGIIYYRSKWYNDYAVSVKSRITINPDTSKNQFSLQLNSVTPEDTAVYYCARHSMVGFDVWGQGTLVTVSS
VL: DIVLTQSPATLSLSPGERATLSCRASQYVTSSYLAWYQQKPGQAPRLLIYGSSRATGVPARFSGSGSGTDFTLTISSLEPEDFATYYCQQYSSSPITFGQGTKVEIKR
B3: TP-2G9 (Fab, V domains shown)
VH: QVQLVESGGGLVQPGGSLRLSCAASGFTFNSYAMTWVRQAPGKGLEWVSAIKSDGSNTYYADSVKGRFTISRDNSKNTLYLQMNSLRAEDTAVYYCARNDSGWFDVWGQGTLVTVSS
VL: DIALTQPASVSGSPGQSITISCTGTSSDLGGFNTVSWYQQHPGKAPKLMIYSVSSRPSGVSNRFSGSKSGNTASLTISGLQAEDEADYYCQSYDLNNLVFGGGTKLTVLG
B4: TP-3C1 (Fab, V domains shown)
VH: QVQLVESGGGLVQPGGSLRLSCAASGFTFSSYSMHWVRQAPGKGLEWVSGISYSSSFTYYADSVKGRFTISRDNSKNTLYLQMNSLRAEDTAVYYCARALGGGVDYWGQGTLVTVSS
VL: B3 VL
B5: TP-2C1 (Fab, V domains shown)
VH: QVQLVESGGGLVQPGGSLRLSCAASGFTFSPYVMSWVRQAPGKGLEWVSSISSSSSNTYYADSVKGRFTISRDNSKNTLYLQMNSLRAEDTAVYYCARGDSYMYDVWGQGTLVTVSS
VL: DIELTQPPSVSVAPGQTARISCSGDSIGSYYAHWYQQKPGQAPVLVIYYDSKRPSGIPERFSGSNSGNTATLTISGTQAEDEADYYCQAYTGQSISRVFGGGTKLTVLG
B6: TP-3A4 (Fab, V domains shown)
VH: QVQLVESGGGLVQPGGSLRLSCAASGFTFSSYWMHWVRQAPGKGLEWVSSISYDSSNTYYADSVKGRFTISRDNSKNTLYLQMNSLRAEDTAVYYCARYGGMDYWGQGTLVTVSS
VL: DIELTQPPSVSVAPGQTARISCSGDNLRDKYASWYQQKPGQAPVLVIYSKSERPSGIPERFSGSNSGNTATLTISGTQAEDEADYYCSSYTLNPNLNYVFGGGTKLTVLG
B7: TP-3C3 (Fab, V domains shown)
VH: QVQLQQSGPGLVKPSQTLSLTCAISGDSVSSNSAAWGWIRQSPGRGLEWLGVIYYRSKWYNDYAVSVKSRITINPDTSKNQFSLQLNSVTPEDTAVYYCARARAKKSGGFDYWGQGTLVTVSS
VL: DIQMTQSPSSLSASVGDRVTITCRASQSINPYLNWYQQKPGKAPKLLIYAASNLQSGVPSRFSGSGSGTDFTLTISSLQPEDFAVYYCQQLDNRSITFGQGTKVEIKR
B8: TP-2A5.1 (Fab, V domains shown)
VH: QVQLVESGGGLVQPGGSLRLSCAASGFTFSSYGSWVRQAPGKGLEWVSVISGSGSSTYYADSVKGRFTISRDNSKNTLYLQMNSLRAEDTAVYYCARVNISTHFDVWGQGTLVTVSS
VL: DIELTQPPSVSVAPGQTARISCSGDNIPEKYVHWYQQKPGQAPVLVIHGDNNRPSGIPERFSGSNSGNTATLTISGTQAEDEADYYCQSFDAGSYFVFGGGTKLTVLG
B9: TP-3B4 (Fab, V domains shown)
VH: QVQLQQSGPGLVKPSQTLSLTCAISGDSVSSNGAAWGWIRQSPGRGLEWLGHIYYRSKWYNSYAVSVKSRITINPDTSKNQFSLQLNSVTPEDTAVYYCARWGGIHDGDIYFDYWGQGTLVTVSS
VL: DIQMTQSPSSLSASVGDRVTITCRASQNISNYLNWYQQKPGKAPKLLIYGTSSLQSGVPSRFSGSGSGTDFTLTISSLQPEDFAVYYCQQYGNNPTTFGQGTKVEIKR
B10: TP-2B9 (Fab, V domains shown)
VH: QVQLQQSGPGLVKPSQTLSLTCAISGDSVSSNSAAWGWIRQSPGRGLEWLGMIYHRSKWYNDYAVSVKSRITINPDTSKNQFSLQLNSVTPEDTAVYYCARYSSIGHMDYWGQGTLVTVSS
VL: DIQMTQSPSSLSASVGDRVTITCRASQSIRSYLAWYQQKPGKAPKLLIYKASNLQSGVPSRFSGSGSGTDFTLTISSLQPEDFAVYYCHQYSDSPVTFGQGTKVEIKR
B11: TP-2E3 (Fab, V domains shown)
VH: B10 VH with H55Y, Y102V, S103N, S104Q, I105Y, G106T, H107S, M108S
VL: DIALTQPASVSGSPGQSITISCTGTSSDIGGYNYVSWYQQHPGKAPKLMIYGVNYRPSGVSNRFSGSKSGNTASLTISGLQAEDEADYYCSSADKFTMSIVFGGGTKLTVLG
B12: TP-2C7 (Fab, V domains shown)
VH: B10 VH with M52I, H55Y, D62H, Y102S, S103N, S104W, I105S, H107Y, M108F
VL: DIQMTQSPSSLSASVGDRVTITCRASQDIRNNLAWYQQKPGKAPKLLIYAASSLQSGVPSRFSGSGSGTDFTLTISSLQPEDFAVYYCQQRNGFPLTFGQGTKVEIKR
B13: TP-3C2 (Fab, V domains shown)
VH: B2 VH with I52M, D62H, H102G, S103G, M104S, V105G, G106V, F107M
VL: B9 VL with N28S, S30T, G50D, T51V, S53N, G92S, N93G, N94Y, T96L
B14: TP-2E5 (Fab, V domains shown)
VH: QVQLQQSGPGLVKPSQTLSLTCAISGDSVSSNSAAWSWIRQSPGRGLEWLGMIFYRSKWNNDYAVSVKSRITINPDTSKNQFSLQLNSVTPEDTAVYYCARVNANGYYAYVDLWGQGTLVTVSS
VL: DIQMTQSPSSLSASVGDRVTITCRASQPIYNSLSWYQQKPGKAPKLLIYGVSNLQSGVPSRFSGSGSGTDFTLTISSLQPEDFAVYYCLQVDNLPITFGQGTKVEIKR
B15: TP-3D3 (Fab, V domains shown)
VH: QVQLVESGGGLVQPGGSLRLSCAASGFTFSSYASWVRQAPGKGLEWVSGISGDGSNTHYADSVKGRFTISRDNSKNTLYLQMNSLRAEDTAVYYCARYDNFYFDVWGQGTLVTVSS
VL: DIELTQPPSVSVAPGQTARISCSGDSLGSKFAHWYQQKPGQAPVLVIYDDSNRPSGIPERFSGSNSGNTATLTISGTQAEDEADYYCSTYTSRSHSYVFGGGTKLTVLG
B16: TP-2A2 (Fab, V domains shown)
VH: QVQLVESGGGLVQPGGSLRLSCAASGFTFSNNAMNWVRQAPGKGLEWVSTISYDGSNTYYADSVKGRFTISRDNSKNTLYLQMNSLRAEDTAVYYCARQAGGWTYSYTDVWGQGTLVTVSS
VL: DIELTQPPSVSVAPGQTARISCSGDNIRTYYVHWYQQKPGQAPVVVIYGDSKRPSGIPERFSGSNSGNTATLTISGTQAEDEADYYCQSYDSEADSEVFGGGTKLTVLG
B17: TP-2G7 (Fab, V domains shown)
VH: QVQLVESGGGLVQPGGSLRLSCAASGFTFNSYAMSWVRQAPGKGLEWVSNISSNSSNTYYADSVKGRFTISRDNSKNTLYLQMNSLRAEDTAVYYCARKGGGEHGFFPSDIWGQGTLVTVSS
VL: B16 VL with I27L, R28G, V45L, S51N, K52N, S89T, E93N, A94N, D95E, E97I
B18: TP-2G4 (Fab, V domains shown)
VH: QVQLVESGGGLVQPGGSLRLSCAASGFTFSSYAMTWVRQAPGKGLEWVSNISYSGSNTYYADSVKGRFTISRDNSKNTLYLQMNSLRAEDTAVYYCARVGYYYGFDYWGQGTLVTVSS
VL: DIELTQPPSVSVAPGQTARISCSGDALRKHYVYWYQQKPGQAPVLVIYGDNNRPSGIPERFSGSNSGNTATLTISGTQAEDEADYYCQSYDKPYPILVFGGGTKLTVLG
B19: TP-3B3 (Fab, V domains shown)
VH: B18 VH with A33G, T35H, S54M, Y59N, V99G, G100L, Y101F, Y102P, Y103G, G104Y
VL: DIELTQPASVSVAPGQTARISCSGDNLRSKYAHWYQQKPGQAPVLVIYGDNNRPSGIPERFSGSNSGNTATLTISGTQAEDEADYYCSAYAMGSSPVFGGGTKLTVLG
B20: TP-3A2 (Fab, V domains shown)
VH: QVQLVESGGGLVQPGGSLRLSCAASGFTFSNYYLSWVRQAPGKGLEWVSGISYNGSSTNYADSVKGRFTISRDNSKNTLYLQMNSLRAEDTAVYYCARMWRYSLGADSWGQGTLVTVSS
VL: DIELTQPPSVSVAPGQTARISCSGDNIGSRYAYWYQQKPGQAPVVVIYDDSDRPSGIPERFSGSNSGNTATLTISGTQAEDEADYYCAAYTFYARTVFGGGTKLTVLG
B21: TP-3A3 (Fab, V domains shown)
VH: QVQLVESGGGLVQPGGSLRLSCAASGFTFNNNAISWVRQAPGKGLEWVSAINSSSSSTSYADSVKGRFTISRDNSKNTLYLQMNSLRAEDTAVYYCARGHHRGHSWASFIDYWGQGTLVTVSS
VL: DIELTQPPSVSVAPGQTARISCSGDNIGSKYVHWYQQKPGQAPVVVIYEDSDRPSGIPERFSGSNSGNTATLTISGTQAEDEADYYCQSWDKSEGYVFGGGTKLTVLG
B22: TP-2A6 (Fab, V domains shown)
VH: QVQLVESGGGLVQPGGSLRLSCAASGFTFSRYAMSWVRQAPGKGLEWVSSIISSSSETYYADSVKGRFTISRDNSKNTLYLQMNSLRAEDTAVYYCARLMGYGHYYPFDYWGQGTLVTVSS
VL: DIELTQPPSVSVAPGQTARISCSGDKIGSKYVYWYQQKPGQAPVLVIYDSNRPSGIPERFSGSNSGNTATLTISGTQAEDEADYYCASYDSIYSYWVFGGGTKLTVLG

What follows are binders tested against human tissue factor pathway inhibitor (TFPI) (human) (UniProt P10646) (assay: ELISA, Fab from bacterial lysate on coated human TFPI).

binding, binds:
B1
B2
B3
B4
B5
B6
B7
B8
B9
B10
B11
B12
B13
B14
B15
B16
B17
B18
B19
B20
B21
B22
